Results as given in patent US20230127839A1, “COMPOUNDS AND COMPOSITIONS FOR TREATING CONDITIONS ASSOCIATED WITH STING ACTIVITY” (IFM Due, Inc., priority 2019, published 2023).
Structures were worked out from names or drawings and are uncertain.

Sequences of proteins named here, by UniProt entry; tags and fusion partners are left off.
UniProt Q86WV6, whole entry R71H/G230A/H232R/R293Q: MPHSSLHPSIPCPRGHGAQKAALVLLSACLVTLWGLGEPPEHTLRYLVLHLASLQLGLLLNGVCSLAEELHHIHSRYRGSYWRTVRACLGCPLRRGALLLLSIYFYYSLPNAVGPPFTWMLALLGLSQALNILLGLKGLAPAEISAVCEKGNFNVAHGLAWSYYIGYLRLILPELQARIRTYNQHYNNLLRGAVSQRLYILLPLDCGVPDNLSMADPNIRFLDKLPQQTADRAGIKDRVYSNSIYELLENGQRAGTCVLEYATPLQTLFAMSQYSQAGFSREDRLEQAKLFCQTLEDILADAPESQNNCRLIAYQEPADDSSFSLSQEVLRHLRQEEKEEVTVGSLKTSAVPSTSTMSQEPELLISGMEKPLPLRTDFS

Molecular target: hSTING (Homo sapiens, UniProt Q86WV6, G230A/H232R/R293Q/R71H)
Test: STING reporter assay (luciferase) in THP1-Dual KO-IFNAR2 cells stimulated with 2'3'cGAMP
Conditions: read-out: hSTING EC50, 2'3'cGAMP 15 μM, 24 h, luciferase reporter activity
Procedure: STING pathway activation by the compounds described herein is measured using THP1-Dual™ cells (KO-IFNAR2).
THP1-Dual™ KO-IFNAR2 Cells (obtained from invivogen) are maintained in RPMI, 10% FCS, 5 ml P/S, 2 mM L-glut, 10 mM Hepes, and 1 mM sodium pyruvate.
Compounds are spotted in empty 384 well tissue culture plates (Greiner 781182) by Echo for a final concentration of 0.0017-100 μM. Cells are plated into the TC plates at 40 μL per well, 2×10E6 cells/mL. For activation with STING ligand, 2′3′cGAMP (MW 718.38, obtained from Invivogen), is prepared in Optimem media.
The following solutions are prepared for each 1×384 plate: • Solution A: 2 mL Optimem with one of the following stimuli: • 60 uL of 10 mM 2′3′cGAMP->150 μM stock • Solution B: 2 mL Optimem with 60 μL Lipofectamine 2000->Incubate 5 min at RT
2 mL of solution A and 2 ml Solution B is mixed and incubated for 20 min at room temperature (RT). […] Luciferase reporter activity is then measured. EC50 values are calculated by using standard methods known in the art.
Luciferase reporter assay: 10 μL of supernatant from the assay is transferred to white 384-plate with flat bottom and squared wells. […] Luminescence is measured on a Platereader (e.g., Spectramax I3X (Molecular Devices GF3637001)).
Luciferase reporter activity is then measured. EC50 values are calculated by using standard methods known in the art.

SMILES | EC50
O=C(Nc1cnc(C2COC3(CCC(F)(F)CC3)OC2)c(Cl)c1)Nc1c[nH]c2ccc(Cl)cc12 | 40 to 200 nM
N#Cc1cc(NC(=O)Nc2c[nH]c3ccc(F)cc23)cnc1C1CCC(F)(F)CC1 | 40 to 200 nM
